Measured data: PubChem BioAssay AID1259254 (NCATS, 2017)
Here is a random part of about 59,000 deposited reagents. About 1,550 of all reagents (2.6%) were called active. 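G2 share is only a proxy for re-replication; each gene was hit by three separate siRNAs, and active genes were retested.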 The raw values are shown without normalisation. The numbers tell different reagents against one gene apart. No sequences are given here. Not stated in the record: the amount of reagent.

- Screen: 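Genome-wide screen for genes that prevent DNA re-replication in cancer cells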 (primary screen)
- Cell system: human HCT116 colorectal cancer cells
- Knock-down reagent: single siRNA against human genes
- Timing: 3 days
- Measurement: 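Nuclei stained with Hoechst and imaged; cell-cycle phase assigned by DNA content; G2 share scaled per plate, non-targeting siRNA 0%, GMNN siRNA 100%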
- Reading the numbers: G2 robust z-score and G2 cells, % of GMNN control: higher = more G2 cells, more excess DNA replication; raw share of cells in G2: higher = larger share of cells with G2 DNA content
- Hit rule: 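Active siRNAs have a G2 robust z of 5 or more median absolute deviations over the median, which in these data means about 38% or higher of GMNN control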

gene symbol	reagent	G2 robust z-score	G2 cells, % of GMNN control	raw share of cells in G2 (%)	Outcome
GCK (glucokinase)	1	-0.523	-0.711	5.37	inactive
GCK (glucokinase)	2	0.535	6.73	7.68	inactive
GCK (glucokinase)	3	-0.759	-2.37	3.19	inactive
DUSP2 (dual specificity phosphatase 2)	1	-1.31	-6.26	2.76	inactive
DUSP2 (dual specificity phosphatase 2)	2	0.395	5.75	6.03	inactive
DUSP2 (dual specificity phosphatase 2)	3	-0.636	-1.51	3.04	inactive
ANKUB1 (ankyrin repeat and ubiquitin domain containing 1)	1	-1.08	-4.6	2.19	inactive
ANKUB1 (ankyrin repeat and ubiquitin domain containing 1)	2	0.144	3.98	5.14	inactive
ANKUB1 (ankyrin repeat and ubiquitin domain containing 1)	3	-0.854	-3.04	3.33	inactive
OASL (2'-5'-oligoadenylate synthetase like)	1	-0.403	0.134	4.75	inactive
OASL (2'-5'-oligoadenylate synthetase like)	2	-1.19	-5.43	3.36	inactive
OASL (2'-5'-oligoadenylate synthetase like)	3	-0.265	1.1	5.04	inactive
GABRA3 (gamma-aminobutyric acid type A receptor subunit alpha3)	1	-1.01	-4.12	3.79	inactive
GABRA3 (gamma-aminobutyric acid type A receptor subunit alpha3)	2	0.549	6.83	7.09	inactive
GABRA3 (gamma-aminobutyric acid type A receptor subunit alpha3)	3	0.661	7.62	7.35	inactive
ZNF182 (zinc finger protein 182)	1	-0.629	-1.46	3.04	inactive
ZNF182 (zinc finger protein 182)	2	0.964	9.75	10.3	inactive
ZNF182 (zinc finger protein 182)	3	-0.029	2.76	4.5	inactive
NKX2-4 (NK2 homeobox 4)	1	-0.394	0.197	3.71	inactive
NKX2-4 (NK2 homeobox 4)	2	-1	-4.07	1.81	inactive
NKX2-4 (NK2 homeobox 4)	3	0.0456	3.29	4.1	inactive
CFC1 (cryptic, EGF-CFC family member 1)	1	-0.461	-0.279	4.24	inactive
CFC1 (cryptic, EGF-CFC family member 1)	2	-0.597	-1.24	3.87	inactive
CFC1 (cryptic, EGF-CFC family member 1)	3	0.804	8.62	5.76	inactive
SPECC1	1	-0.891	-3.3	2.68	inactive
SPECC1	2	-0.444	-0.158	2.95	inactive
SPECC1	3	0.177	4.22	4.26	inactive
TTYH2 (tweety family member 2)	1	0.224	4.54	3.15	inactive
TTYH2 (tweety family member 2)	2	0.0935	3.63	5.55	inactive
TTYH2 (tweety family member 2)	3	0.783	8.48	5.86	inactive
AARS2 (alanyl-tRNA synthetase 2, mitochondrial)	1	0.219	4.51	7.51	inactive
AARS2 (alanyl-tRNA synthetase 2, mitochondrial)	2	-0.704	-1.99	3.64	inactive
AARS2 (alanyl-tRNA synthetase 2, mitochondrial)	3	-0.575	-1.08	3.83	inactive
FOXE1 (forkhead box E1)	1	2.58	21.1	13.3	inactive
FOXE1 (forkhead box E1)	2	1.12	10.9	9.18	inactive
FOXE1 (forkhead box E1)	3	0.0357	3.22	4.8	inactive
KCNT2 (potassium sodium-activated channel subfamily T member 2)	1	5.48	41.6	20.4	active
KCNT2 (potassium sodium-activated channel subfamily T member 2)	2	-0.92	-3.51	3.6	inactive
KCNT2 (potassium sodium-activated channel subfamily T member 2)	3	2.95	23.7	13.6	inactive
UTS2 (urotensin 2)	1	4.42	34.1	19.9	inactive
UTS2 (urotensin 2)	2	2.33	19.4	14.1	inactive
UTS2 (urotensin 2)	3	-0.792	-2.6	3	inactive
FAM135A (family with sequence similarity 135 member A)	1	0.143	3.97	5.91	inactive
FAM135A (family with sequence similarity 135 member A)	2	-0.0485	2.63	5.71	inactive
FAM135A (family with sequence similarity 135 member A)	3	-0.593	-1.21	2.65	inactive
RAB40A (RAB40A, member RAS oncogene family)	1	-1.18	-5.32	2.46	inactive
RAB40A (RAB40A, member RAS oncogene family)	2	4.94	37.7	18.5	inactive
RAB40A (RAB40A, member RAS oncogene family)	3	0.891	9.24	10.4	inactive

6 entries from above, sorted by “G2 cells, % of GMNN control”, low to high:
gene symbol	reagent	G2 robust z-score	G2 cells, % of GMNN control	raw share of cells in G2 (%)	Outcome
AARS2 (alanyl-tRNA synthetase 2, mitochondrial)	2	-0.704	-1.99	3.64	inactive
AARS2 (alanyl-tRNA synthetase 2, mitochondrial)	3	-0.575	-1.08	3.83	inactive
FOXE1 (forkhead box E1)	3	0.0357	3.22	4.8	inactive
FOXE1 (forkhead box E1)	2	1.12	10.9	9.18	inactive
FOXE1 (forkhead box E1)	1	2.58	21.1	13.3	inactive
KCNT2 (potassium sodium-activated channel subfamily T member 2)	1	5.48	41.6	20.4	active
